The record followed here is the supplement of paper PMC11150407.

The campaign covered roughly 2,100 compounds. About 180 (8.6%) showed an effect of 50% or more. This is one part of the list.

For the experiment, the system named is MOLM1 and UCSD/AML1 (averaged). The experiment can be described thus: cell viability relative to DMSO control (POC); higher = less growth inhibition. The settings on record: 1 µM; 72 h. As to the method: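 Primary viability screen in the 3q26 EVI1-high AML cell lines MOLM1 and UCSD/AML1 (1.5e3 cells/well, 384-well), compounds at 1 uM for 72 h. ATP CellTiter-Glo read-out given as percent of viable cells over DMSO control (POC), averaged over duplicates. DMSO was the negative control and 5 uM etoposide the positive control. This mapping covers the MicroSource Spectrum and Selleck anticancer libraries (drug names).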
The cell viability is a read-out of living cells in per cent, often relative to untreated cells. In the case of `N#Cc1c(Cl)c(Cl)c(Cl)c(C#N)c1Cl`, the cell viability stood at 1.55%.

With `CC[N+]1(C)CCCC(OC(=O)C(O)(c2ccccc2)c2ccccc2)C1` (stereo not given), the cell viability stood at 87.3%. Under `CC1=C2C(=CO[C@H](C)[C@H]2C)C(O)=C(C(=O)O)C1=O` stands 104%; under `CC1C=CC=CCCC=CC=CC=CC=CC(OC2OC(C)C(O)C(N)C2O)CC2OC(O)(CC(O)C(O)CCC(O)CC(O)CC(O)CC(=O)OC(C)C(C)C1O)CC(O)C2C(=O)O` (stereo not given), 92.4%; under `C[C@@H]1C[C@H](O)[C@@]2(O)[C@]13CC(=O)OC[C@@]2(C)[C@@](C)(O)C(=O)C3`, 92.3%.

Take `CC(=O)O[C@H]1CC[C@@]2(C)[C@H](CC[C@@H]3[C@@H]2CC[C@]2(C)[C@@H](C4=CC(=O)OC4)[C@@H](OC(C)=O)C[C@]32O)C1`: the cell viability stood at 2.29%. Turning to `COc1cc2c(c(OC)c1OC)-c1ccc(OC)c(=O)cc1[C@@H](NC(C)=O)CC2`, the cell viability came out at 6.75%. Consider `N#C[C@H](O[C@@H]1O[C@H](CO[C@@H]2O[C@H](CO)[C@@H](O)[C@H](O)[C@H]2O)[C@@H](O)[C@H](O)[C@H]1O)c1ccccc1`, for which the cell viability was determined as 87.5%.

Turning to `CC[C@@H](CO)NC(=O)[C@@H]1C=C2c3cccc4c3c(cn4C)C[C@H]2N(C)C1`, the cell viability was determined as 103%. Next, `CN1C[C@H](CNC(=O)OCc2ccccc2)C[C@@H]2c3cccc4c3c(cn4C)C[C@H]21`: 89.9%; `O=C(O)CC[N+](=O)[O-]` [BOVINOCIDIN (3-nitropropionic acid)]: 94.6%; `Oc1ccc2c3c1O[C@H]1[C@@H](O)CC[C@@]4(O)[C@@H](C2)N(CC2CCC2)CC[C@]314`: 102%. Next, `C/C=C/c1ccc2c(c1)OCO2`: 108%. Next, `CN1CCc2cc3c(cc2[C@H]1[C@@H]1OC(=O)c2c1ccc1c2OCO1)OCO3`: 93.9%. In the case of `N[C@H](CO)Cc1ccccc1`, the cell viability turned out to be 92.1%. Next, `CC(O)(CS(=O)(=O)c1ccc(F)cc1)C(=O)Nc1ccc(C#N)c(C(F)(F)F)c1` (stereo not given) [Bicalutamide (Casodex)]: 101%. Under `CCOC(=O)c1cncn1[C@H](C)c1ccccc1` stands 79.6%. On to `O=c1cccc2n1C[C@@H]1CNC[C@H]2C1`, for which the cell viability was 95.5%.

For `NCC1(CC(=O)O)CCCCC1`, the cell viability came out at 94.2%. Next, `C=CCc1ccc(OC)cc1`: 107%. Under `CC[C@@H](C)C(=O)O[C@H]1[C@H](O)[C@H]2[C@@H](CN3C[C@@H](C)CC[C@H]3[C@@]2(C)O)[C@@H]2C[C@]34O[C@]5(O)[C@@H](OC(=O)[C@@](C)(O)CC)CC[C@@]3(C)[C@@H]5[C@@H](OC(C)=O)[C@@H](OC(C)=O)[C@H]4[C@@]21O` stands 89.1%; under `CC(N)C(O)c1ccccc1` (stereo not given), 114%; under `CC1(C)C(=O)[C@@H]2O[C@@H]2[C@@]2(C)C1C[C@@H](O)[C@]1(C)C2CC[C@@]2(C)[C@H](c3ccoc3)OC(=O)C3OC321` (stereo partly drawn) [1,2alpha-EPOXYDEACETOXYDIHYDROGEDUNIN], 91.4%. Next, `O=C(CCCN1CCC2(CC1)C(=O)NCN2c1ccccc1)c1ccc(F)cc1`: 103%; `O=[N+]([O-])O[C@H]1CO[C@H]2[C@@H]1OC[C@H]2O[N+](=O)[O-]`: 116%; `CC(C)(O)[C@@H]1[C@H]2OC(=O)[C@@H]1[C@]1(O)C[C@H]3O[C@]34C(=O)O[C@H]2[C@]14C`: 87.8%. In the case of `CC(C)(C#N)O[C@@H]1O[C@H](CO)[C@@H](O)[C@H](O)[C@H]1O`, the cell viability came to 109%. With `CC(=O)O[C@H]1C(=O)[C@@]2(C)[C@H]([C@H](OC(=O)c3ccccc3)[C@]3(O)C[C@H](O)C(C)=C1C3(C)C)[C@]1(OC(C)=O)CO[C@@H]1C[C@@H]2O`, the cell viability was determined as 91.6%. Under `C=CCc1cc(OC)c2c(c1OC)OCO2` stands 98.9%. Under `C[N+]1(C)CCc2cc3c(cc2[C@H]1[C@@H]1OC(=O)c2c1ccc1c2OCO1)OCO3` stands 104%; under `COc1cc2c(cc1OC)[C@@H]1C(=O)c3ccc4c(c3O[C@@H]1CO2)CC(C(C)C)O4` (stereo not given in full), 77.8%; under `COc1ccc2c(c1OC)C(=O)O[C@H]2[C@H]1c2cc3c(cc2CCN1C)OCO3`, 93.9%. Regarding `CC[C@@H](CO)NC(=O)[C@@H]1C=C2c3cccc4[nH]cc(c34)C[C@H]2N(C)C1`, the cell viability stood at 98%.

For `CCCCOC(=O)c1ccccc1C(=O)OCCCC`, the cell viability was 103%.

For the compound `O=C(O)c1nn(Cc2ccc(Cl)cc2Cl)c2ccccc12` [Lonidamine], the cell viability was 86.9%. Under `C[N+]12CC[C@@]34c5ccccc5N5C(=O)C[C@@H]6OCC=C(C1)[C@H](C[C@@H]32)[C@@H]6[C@H]54` (stereo not given in full) stands 102%.

Consider `O=C(NC(=O)c1c(F)cccc1F)Nc1ccc(Cl)cc1`, for which the cell viability amounted to 118%.

Take `C[C@@H]1C[C@@H]([C@H](O)CC2CC(=O)NC(=O)C2)C(=O)[C@@H](C)C1`: the cell viability came out at 18.4%. Under `CC(NC(C)(C)C)C(=O)c1cccc(Cl)c1` (stereo not given) stands 130%; under `O=C(O)CCCO`, 103%. Under `C=CCSSCC=C` stands 91.1%; under `CC(=O)[C@H]1CC[C@H]2[C@@H]3CC[C@H]4C[C@H](O)CC[C@]4(C)[C@H]3CC[C@]12C`, 87.7%.

`NCC(CC(=O)O)c1ccc(Cl)cc1` (stereo not given): the cell viability came to 98.1%. Next, `CC(C)[C@]12O[C@H]1[C@@H]1O[C@]13[C@]1(O[C@H]1C[C@H]1C4=C(CC[C@@]13C)C(=O)OC4)[C@@H]2O` [Triptolide]: 2.21%; `CC(=O)O[C@H]1[C@H]2[C@@H](OC(=O)Cc3ccccc3)[C@@H](C)C[C@]2(OC(C)=O)C(=O)/C(C)=C/[C@@H]2[C@H](CC[C@@]13CO3)C2(C)C`: 96.8%; `NC(=O)c1cc([N+](=O)[O-])cc([N+](=O)[O-])c1`: 95%.

With `COc1ccc2c(c1O)-c1c(OC)c(OC)cc3c1[C@H](C2)N(C)CC3`, the cell viability was determined as 96.4%.

`O=C1CC[C@@]2(O)[C@H]3Cc4ccc(O)c5c4[C@@]2(CCN3CC2CC2)[C@H]1O5`: the cell viability is 109%.

For the compound `CN[C@@H]1[C@@H](O)[C@@H](O[C@@H]2[C@@H](O)[C@H](O[C@H]3O[C@H](CN)CC[C@H]3N)[C@@H](N)C[C@H]2N)OC[C@]1(C)O.CN[C@@H]1[C@@H](O)[C@@H](O[C@@H]2[C@@H](O)[C@H](O[C@H]3O[C@H]([C@@H](C)N)CC[C@H]3N)[C@@H](N)C[C@H]2N)OC[C@]1(C)O.CN[C@@H]1[C@@H](O)[C@@H](O[C@@H]2[C@@H](O)[C@H](O[C@H]3O[C@H]([C@@H](C)NC)CC[C@H]3N)[C@@H](N)C[C@H]2N)OC[C@]1(C)O`, the cell viability came to 101%. Next, `CN1C[C@H](C(=O)N[C@]2(C)O[C@@]3(O)[C@@H]4CCCN4C(=O)[C@H](Cc4ccccc4)N3C2=O)C=C2c3cccc4[nH]cc(c34)C[C@H]21`: 48.2%.
